Measured values taken from PMC10916869.
Results are given in words; binding and its absence hold for the method and conditions named. In cells and extracts the contact can be indirect. Some entries that bind do so weakly or less than the wild type. Blank lines part the entries; values can stand above or below the binder they belong to.

Amino acid sequences for entries named in this document (tags omitted). A change or cut given only in a name is not applied to a line headed by its entry. Chains listed by the source or under a name are the forms on record and can include a tag or linker. Residues count along the entry.
UniProt Q15363, residues 21-201: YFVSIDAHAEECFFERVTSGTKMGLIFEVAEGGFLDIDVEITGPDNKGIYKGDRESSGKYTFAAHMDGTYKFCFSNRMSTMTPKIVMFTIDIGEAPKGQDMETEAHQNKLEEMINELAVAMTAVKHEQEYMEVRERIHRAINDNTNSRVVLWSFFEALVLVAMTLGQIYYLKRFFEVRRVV
ATZ-Venus (alpha-1-antitrypsin Z mutant with C-terminal Venus) (P01009, form named): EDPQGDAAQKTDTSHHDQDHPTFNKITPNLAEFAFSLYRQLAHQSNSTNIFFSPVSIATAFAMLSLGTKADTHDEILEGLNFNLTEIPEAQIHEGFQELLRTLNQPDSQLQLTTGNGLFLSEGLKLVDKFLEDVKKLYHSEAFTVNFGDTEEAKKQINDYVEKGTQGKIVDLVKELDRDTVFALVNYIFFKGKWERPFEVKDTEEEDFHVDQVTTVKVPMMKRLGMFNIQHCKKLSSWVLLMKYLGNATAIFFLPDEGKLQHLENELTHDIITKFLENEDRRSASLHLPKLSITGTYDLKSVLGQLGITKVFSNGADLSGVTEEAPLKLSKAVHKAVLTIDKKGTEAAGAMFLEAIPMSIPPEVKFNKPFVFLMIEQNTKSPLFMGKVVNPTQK

Experiments:
CER-p24 = CER-p24 (UniProt Q15363); assay: co-IP; GFP-tag (Venus, Cerulean, YFP) pull-down with the μMACS GFP Isolation Kit from N2a cells 48 h after transient transfection; lysis, incubation and washes in 1% CHAPS, 50 mM HEPES pH 7.4, 100 mM NaCl, 2 mM CaCl2 at 4°C; eluates immunoblotted; untransfected parental cells as control; Figure 3C is a single experiment (n = 1)
[1] = target: T1, CER-TMP21 (SS(TMP21)-CER-TMP21) (rat) (UniProt Q63584); assay: as above
T1 sequence: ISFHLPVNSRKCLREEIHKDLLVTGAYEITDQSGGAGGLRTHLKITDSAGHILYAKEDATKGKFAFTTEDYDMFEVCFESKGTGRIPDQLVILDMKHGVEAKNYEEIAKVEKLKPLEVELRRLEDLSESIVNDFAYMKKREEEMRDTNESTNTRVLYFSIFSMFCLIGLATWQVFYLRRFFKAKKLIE

[2] = target: T2, CER-TMED9 (SS(lactase)-CER-TMED9) (human) (UniProt Q9BVK6); assay: as above
T2 sequence: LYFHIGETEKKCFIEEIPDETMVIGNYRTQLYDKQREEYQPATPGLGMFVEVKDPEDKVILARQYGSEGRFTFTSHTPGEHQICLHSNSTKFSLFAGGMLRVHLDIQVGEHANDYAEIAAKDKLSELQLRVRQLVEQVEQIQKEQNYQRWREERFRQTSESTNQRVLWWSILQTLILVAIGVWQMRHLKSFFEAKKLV

[3] = target: ATZ-Venus (alpha-1-antitrypsin Z mutant with C-terminal Venus) (UniProt P01009); assay: co-IP
[4] = target: ATZ-Venus (alpha-1-antitrypsin Z mutant with C-terminal Venus) (UniProt P01009); assay: co-IP; GFP-tag (Venus, Cerulean, YFP) pull-down with the μMACS GFP Isolation Kit from N2a cells 48 h after transient transfection; lysis, incubation and washes in 1% CHAPS, 50 mM HEPES pH 7.4, 100 mM NaCl, 2 mM CaCl2 at 4°C; eluates immunoblotted; untransfected parental cells as control; Figure 3C is a single experiment (n = 1)

B2: TMP21 (protein, UniProt Q9D1D4 32-219)
chain: T1 sequence
- binding [3]: binds

B4: calnexin (protein, UniProt P35564 21-591)
chain: HDGHDDDAIDIEDDLDDVIEEVEDSKSKSDASTPPSPKVTYKAPVPTGEVYFADSFDRGSLSGWILSKAKKDDTDDEIAKYDGKWEVDEMKETKLPGDKGLVLMSRAKHHAISAKLNKPFLFDTKPLIVQYEVNFQNGIECGGAYVKLLSKTAELSLDQFHDKTPYTIMFGPDKCGEDYKLHFIFRHKNPKTGVYEEKHAKRPDADLKTYFTDKKTHLYTLILNPDNSFEILVDQSVVNSGNLLNDMTPPVNPSREIEDPEDRKPEDWDERPKIADPDAVKPDDWDEDAPSKIPDEEATKPEGWLDDEPEYIPDPDAEKPEDWDEDMDGEWEAPQIANPKCESAPGCGVWQRPMIDNPNYKGKWKPPMIDNPNYQGIWKPRKIPNPDFFEDLEPFKMTPFSAIGLELWSMTSDIFFDNFIISGDRRVVDDWANDGWGLKKAADGAAEPGVVLQMLEAAEERPWLWVVYILTVALPVFLVILFCCSGKKQSNAMEYKKTDAPQPDVKDEEGKEEEKNKRDEEEEEEKLEEKQKSDAEEDGVTGSQDEEDSKPKAEEDEILNRSPRNRKPRRE
- binding [4]: binds

B5: FAM134B (protein, UniProt Q8VE91 1-480)
chain: MASPAPEEHATQGCPATEEQPPRPGVPGEEAGPEGAGPQVEEAAGRVAAALTWLLGEPVLWLGWRADELLSWKRPLRSLLTFLGANLLFWFLALTPWRVYHLISVMILGRVIMQIIKEMVLSRTRGAQLWRSLTESWEVINSKPDERARLSQCIAESWMNFSMFLQEMSLFKQQSPGKFCLLVCSVCTFFTILGSYIPGVILSYLLLLFAFLCPLFKCNDIGQKIYSKVKSILLKLDFGIGEYINQKKRERSEADKEKSHKDDSELDFSALCPKISLTVAAKELSVSDTDVSEVSWTDNGTFNLSEGYTPQTDTSDDLDRPSEEVFSRDLSDFPSLENGTGTNDEDELSLGLPTELKRKKQQLDSAHRPSKERQSAAGLSLPLKSDQALHLMSNLAGDVITAAMTAAIKDQLEGARQALTQVAPTAGEDTDTEEGDDFELLDQAELDQIESELGLTQDQGAEAQQSKKSSGFLSNLLGGH
- binding [4]: binds
- binding (CER-p24): binds
- binding [1]: binds
- binding [2]: binds

More lines, now with the values ahead:

- binding (CER-p24): binds
- binding [1]: binds
- binding [2]: binds
B1: SEC24C (protein, UniProt G3X972 1-1096)
chain: MNVNQSAPPVPPYGQNQPIYPGYHQSSYGGQPGPAAPATPYGAYNGPVPGYQQAPPQGVPRAPPSSGAPPASAAQVPCGQTTYGQFGQGDIQNGPSSTAQMQRVPGSQQFGPPLAPVVSQPAVLQPYGPPPTSTQVTAQLAGMQISGAVAQAPPPSGLGYGPPTSLASASGNFPNSGPYGSYPQSQAPPLSQAQGHPGVQPPLRSAPPLASSFTSPASGGPQMPSMTGLLPPGQGFGSLPVNQANHVSSPPAPALPPGTQMTGPPVPPPPPMHSPQQPGYQLQQNGSFGPARGPQPNYESPYPGAPTFGSQPGPPQPLPPKRLDPDAIPSPIQVIEDDRNNRGSEPFVTGVRGQVPPLVTTNFLVKDQGNASPRYIRCTSYNIPCTSDMAKQAQVPLAAVIKPLARLPPEEASPYVVDHGESGPLRCNRCKAYMCPLMTFIEGGRRFQCSFCSCVNDVPPQYFQHLDHTGKRVDAYDRPELSLGSYEFLATVDYCKNNKFPSPPAFIFMIDVSYNAIRTGLVRLLCEELKSLLDYLPREGGAEESAIRVGFVTYNKVLHFYNVKSSLAQPQMMVVSDVADMFVPLLDGFLVNVSESRAVITSLLDQIPEMFADTRETETVFAPVIQAGMEALKAAECAGKLFLFHTSLPIAEAPGKLKNRDDRKLINTDKEKTLFQPQTGTYQTLAKECVAQGCCVDLFLFPNQYVDVATLSVVPQLTGGSVYKYACFQVENDQERFLSDLRRDVQKVVGFDAVMRVRTSTGIRAVDFFGAFYMSNTTDVELAGLDGDKTVTVEFKHDDRLNEENGALLQCALLYTSCAGQRRLRIHNLALNCCTQLADLYRNCETDTLINYMAKFAYRAVLNSPVKTVRDTLITQCAQILACYRKNCASPSSAGQLILPECMKLLPVYLNCVLKSDVLQPGAEVTTDDRAYVRQLVSSMDVAETNVFFYPRLLPLTKSPLDSTAEPPAVRASEERLSSGDIYLLENGLNLFVWVGASVQQGVVQSLFNVSSFSQITSGLSVLPVLDNPLSKKVRGLIDSLRAQRMRYMKLIVVKQEDKLEMLFKHFLVEDKSLSGGASYVDFLCHMHKEIRQLLS

- binding [4]: binds
B3: TMED9 (protein, UniProt Q99KF1 38-235)
chain: T2 sequence
